The numbers were not newly measured in patent US20040259184A1, “Fluorescent methods for the high-throughput quantification of tartrate-resistant acid phosphatase (TRAP)” (Pharmacia Corporation, priority 2003, published 2004), which cites them from elsewhere.

In this data set the test system is OCL formation. Particulars: previously published data (Matsumoto 2000; Kumar 2001); read-out: IC50 of dose dependent inhibition of OCL formation; cited from earlier work.

Turning to `C[S+]([O-])c1ccc(-c2nc(-c3ccc(F)cc3)c(-c3ccncc3)[nH]2)cc1` (stereo not shown) [SB203580], the IC50 was 3000 nM.
